Measured values from PubChem BioAssay AID1487 (National Center for Advancing Translational Sciences (NCATS), 2009).
This is one part of the list. Further columns of the screen follow, without active or inactive calls. Compounds called inactive in the main read-out are mostly missing here. Words in brackets tell the shape of the fitted curve; partial curves, single points and poor fits give uncertain potencies.

Experiment: qHTS Assay for Modulators of Lamin A Splicing
Conditions: HeLa LMNA splicing GFP/RFP minigene ratio, 48 h
Method in brief: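 Read-out is the ratio of GFP to DsRed2 object intensity, acquired by 488 nm laser-scanning cytometry on HeLa lamin A-EGFP minigene reporter cells. Compound incubation 48 hrs at 37 °C in Opti-MEM with 2% FBS; DMSO 0.5% final.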

[1] = measured here: RFP viability control channel
[2] = measured here: GFP splicing reporter channel

Row | SMILES | AC50 [1] | AC50 [2]
1 | CN(c1ccc(Cl)cc1)S(=O)(=O)c1nnc(NC(=O)c2ccco2)s1 | 35.5 µM [rising, single point] | 
2 | CC1=NNC(=O)/C1=C\c1cn(-c2ccccc2)nc1-c1cccs1 | 20 µM [rising, partial curve] | 
3 | CC(C)NC(=S)NC(=O)/C=C/c1ccc(F)cc1 | 11.2 µM [rising, single point] | 
4 | COc1cc(NS(=O)(=O)c2ccc(NC(=O)c3ccco3)cc2)nc(OC)n1 | 0.158 µM [rising, full curve, poor fit] | 
5 | Cc1ccc(N2CCN(C(=O)Nc3cn(CC(C)C)c(=O)c4ccccc34)CC2)c(C)c1 |  | 35.5 µM [falling, single point]
6 | CCCCN1C(=O)/C(=C2\SC(N3CCCCC3)=NC2=O)c2ccccc21 | 14.1 µM [rising, single point] | 10 µM [rising, partial curve, poor fit]
7 | O=C(Nc1ccccc1-c1nc2ccccc2s1)c1ccco1 |  | 2 µM [rising, partial curve, poor fit]
8 | Cc1ccccc1NS(=O)(=O)c1ccc(NC(=O)CSCc2ccc(Br)cc2)cc1 | 7.94 µM [falling, partial curve, poor fit] | 4.47 µM [falling, partial curve]
9 | CCOC(=O)n1c(=O)n(Cc2ccc(Cl)cc2Cl)c2ccccc21 | 22.4 µM [rising, partial curve] | 
10 | C=C(C)CSc1nncn1/N=C/c1ccc(OC)cc1 |  | 14.1 µM [rising, single point]
11 | CCC(C)(c1nnnn1-c1c(C)cccc1C)N(N=O)c1ccccc1Cl (configuration not stated) | 14.1 µM [rising, partial curve, poor fit] | 22.4 µM [rising, single point]
12 | Cc1ccc(CNC(=O)c2ccc(CSCc3c(F)cccc3Cl)o2)cc1 | 35.5 µM [rising, single point] | 
13 | CCCNC(=O)c1ccccc1NC(=O)c1ccc(CSc2ccccc2)cc1 | 14.1 µM [rising, single point] | 
14 | CCCN1C2CCCC1CC(NC(=S)NCCCOCC)C2 (configuration not stated) | 1.58 µM [falling, full curve, poor fit] | 
15 | CC(C(=O)NC(=O)NC1CCCCC1)N1CCN(c2ccccn2)CC1 (configuration not stated) | 11.2 µM [rising, single point] | 20 µM [rising, partial curve]
16 | Cc1ccc(-c2cn3c(n2)sc2cc(C(=O)NC4CCCCC4)ccc23)cc1 | 12.6 µM [rising, partial curve, poor fit] | 
17 | Cc1ccc(C(=O)NC(=S)Nc2cccc(NC(=O)c3ccccc3)c2)cc1[N+](=O)[O-] | 3.16 µM [rising, partial curve, poor fit] | 
18 | CCCCOCC(O)CCc1n[nH]c(=S)n1-c1ccccc1 (configuration not stated) | 0.0891 µM [falling, full curve] | 0.0224 µM [falling, full curve, poor fit]
19 | COc1ccc(S(=O)(=O)n2ccc(C(C)Oc3ccc(-c4ccccc4)c(F)c3)n2)cc1 (configuration not stated) | 11.2 µM [rising, partial curve] | 
20 | Cc1cccn2c(=O)c(C=O)c(N3CCN(c4ccc(F)cc4)CC3)nc12 | 10 µM [rising, partial curve] | 10 µM [rising, partial curve]
21 | CCc1nc2ccccc2c(C(=O)OCc2nnc(-c3ccccc3)o2)c1C | 31.6 µM [rising, single point] | 
22 | Cc1ccc(S(=O)(=O)Nc2ccccc2-c2ccccc2)cc1 | 4.47 µM [falling, full curve] | 3.98 µM [falling, full curve]
23 | CCSc1nnc(NC(=O)CSc2nnc(CNC(=O)c3ccccc3F)o2)s1 |  | 14.1 µM [rising, single point]
24 | COc1ccc(CN(C2CCCC2)S(=O)(=O)c2ccc(-n3cnnn3)cc2)cc1 | 31.6 µM [rising, single point] | 
25 | CC(=O)Nc1cccc(C(=O)/C=C/c2ccc(N(C)C)cc2)c1 | 25.1 µM [rising, partial curve] | 10 µM [rising, partial curve]
26 | O=C(COC(=O)c1ccc2[nH]c3c(c2c1)CCCC3)Nc1ccccc1 | 22.4 µM [rising, single point] | 22.4 µM [rising, single point]
27 | N#C/C(=N\Nc1ccc(S(=O)(=O)N2CCc3ccccc32)cc1)C(N)=S | 14.1 µM [rising, partial curve] | 25.1 µM [rising, single point]

Row | SMILES | AC50 [1] | AC50 [2]
28 | Cc1c(Cl)cccc1N=Cc1ccc([N+](=O)[O-])s1 | 35.5 µM [falling, single point] | 25.1 µM [falling, single point]
29 | CCn1c(SCC(=O)Nc2nc(-c3ccccc3)cs2)nnc1-c1ccccc1 | 17.8 µM [rising, single point] | 12.6 µM [rising, single point]
30 | CC(=O)c1ccc(NC(=O)c2nn(C)c3c2CS(=O)(=O)c2ccccc2-3)cc1 | 15.8 µM [rising, single point] | 3.16 µM [rising, partial curve, poor fit]
31 | O=C(CCBr)N1CCN(C(=O)CCBr)CC1 | 0.501 µM [falling, single point] | 12.6 µM [falling, partial curve, poor fit]
32 | COCC(C)n1c(=O)sc2ccccc2c1=O (configuration not stated) |  | 3.55 µM [rising, partial curve]
33 | O=C(Nc1ccc(Cl)cc1)c1cnc(-c2ccccc2)nc1-c1ccccc1 | 25.1 µM [falling, partial curve] | 35.5 µM [falling, single point]
34 | CN(C)S(=O)(=O)c1ccc(Cl)c(NC(=O)CSc2nc3c(cc2C#N)C(=O)CC(C)(C)C3)c1 | 25.1 µM [rising, partial curve] | 22.4 µM [rising, single point]
35 | Cc1cc(C)c(C)c(S(=O)(=O)N2CCN(c3ccc(O)cc3)CC2)c1C | 22.4 µM [rising, single point] | 
36 | COc1ccc(Nc2nc(NC(C)(C)C)nc(N3CCCC3)n2)c(OC)c1 | 15.8 µM [rising, single point] | 22.4 µM [rising, partial curve, poor fit]
37 | COc1ccc(N(C(=O)c2cccnc2)S(=O)(=O)c2cccc([N+](=O)[O-])c2)cc1 | 2.82 µM [rising, partial curve] | 
38 | COc1cc(/C=C2\SC(N)=NC2=O)ccc1OCC(=O)Nc1ccc(C)cc1 | 14.1 µM [falling, partial curve, poor fit] | 
39 | CCOc1ccc(NC(=O)C[n+]2ccc(N(C)C)cc2)cc1 | 35.5 µM [rising, single point] | 
40 | Cn1c(Cn2c(=O)sc3ccccc32)nnc1SCc1ccc(F)cc1 | 22.4 µM [rising, partial curve] | 
41 | COc1ccc(OC)c(NC(=O)C2CCN(Cc3cnn(-c4ccccc4)c3-n3cccc3)CC2)c1 | 11.2 µM [rising, single point] | 
42 | Cc1cccc(NC(c2nnc(-c3ccccc3)o2)c2ccc(F)cc2Cl)c1C (configuration not stated) |  | 7.08 µM [rising, partial curve, poor fit]
43 | Cc1ccc(-c2cn3c(n2)sc2cc(C(=O)NC4CCCCCC4)ccc23)c(C)c1 | 15.8 µM [rising, partial curve] | 
44 | O=C(NCc1ccccc1)c1ccc2c(c1)sc1nc(-c3ccc(F)cc3)cn12 |  | 0.0178 µM [falling, full curve, poor fit]
45 | COC(=O)/C=C1\N/C(=N\c2nc(C)cc(C)n2)N(c2ccc(C)c(C)c2)C1=O | 31.6 µM [rising, single point] | 
46 | CCc1ccccc1NC(=O)CSc1nc2ccccc2nc1Cc1cccc(OC)c1 | 3.98 µM [rising, partial curve] | 0.355 µM [rising, full curve]
47 | CC1(C)Cc2c(sc3nnn(CC(=O)Nc4ccccc4)c(=O)c23)CO1 |  | 1.58 µM [rising, partial curve]
48 | O=C(NCc1ccc2c(c1)OCO2)c1ccc(-c2ccc(Cl)cc2)o1 | 17.8 µM [rising, single point] | 12.6 µM [rising, single point]
49 | Cc1nc2c(ccc3nc(NC(=O)c4ccc5c(c4)OCCO5)sc32)s1 | 35.5 µM [falling, single point] | 2.82 µM [rising, partial curve]
50 | Cc1cc(/C=N/NC(=O)C(=O)N2CCCC2)c(C)n1-c1cccc(Br)c1 | 11.2 µM [rising, single point] | 
51 | COc1cc(NC(=O)C2CC(c3cccc(OC)c3OC)=NO2)cc(OC)c1OC (configuration not stated) | 8.91 µM [rising, partial curve] | 
52 | Cc1ccc(C)c(NC(=S)N(CCN(C)C)C(C)c2ccccn2)c1 (configuration not stated) | 0.562 µM [rising, single point] | 1.26 µM [rising, full curve]
53 | CCc1cc[n+](C2=C([O-])c3ccccc3C(=O)/C2=N\S(=O)(=O)c2cccs2)cc1 | 20 µM [falling, single point] | 3.55 µM [rising, single point]
54 | Cc1cc(-c2nnc(SCc3ccccn3)o2)no1 | 0.631 µM [rising, full curve, poor fit] | 7.94 µM [rising, partial curve]

Full records as entered above:
O=C(Nc1ccc(Cl)cc1)c1cnc(-c2ccccc2)nc1-c1ccccc1 in the list: AC50 [1]: 25.1 µM [falling, partial curve]; AC50 [2]: 35.5 µM [falling, single point]
COc1cc(NC(=O)C2CC(c3cccc(OC)c3OC)=NO2)cc(OC)c1OC (configuration not stated) in the list: AC50 [1]: 8.91 µM [rising, partial curve]
